Data reported in publication PMC6527865.

Target: Scc2N with a C-terminal Pk epitope tag (S. cerevisiae)
Assay: co-IP; full-length Scc2, Scc2N or Scc2C immunoprecipitated from extracts of cells depleted of endogenous Scc2; co-immunoprecipitation of Scc4 (Figure S5B)

B1: Scc4 (protein, UniProt P40090 1-624)
chain: MENLGDKLSISQVYHLAQEYRDHAYSIANKIGSEEGLKQYYGLMNMSIQMFQLLKTKCTLSVLEDSKVTFEMVELLIQETYNFDLAELYISSLKERLQTHQSDTDLVEEIMRCEFLLLHDLPLMRDSKFHYKIALRNCNELVQYMVNLQDELYQNWASVFQYVGVMLCIKLKQHRRVKTSFHGLLSQCREKSQWKWFLNLCYVNYLLNERFPIPEDALQELRSTELHTVGPELYAWKLALEMVIQLCKDGNITDHLNEFKNFFDTNKQSLVTNEGKGCVIKIMPRIALKVELPMIFHYKELKNILLLLQSVSYIVNCYDEKGNFSRKFLPKVYSTTQKLIKNIAAGGVSMNELDSRIQTYKSILEFCEFYKVWEQTLLKGAVVTTESPKLGPSPGYVRLLQAMKVQFEGGGAVEEYTRLAQSGGTSSEVKMISLLNCYTVQAARVSRCSGDKQGELVEQCNKVWLQVEKLLQETDLQFNPIWECTVTILWLFSHFEPFSWNPLPCSDKQRAEYVSKLREFYSSNKFVAGEAVADNRFKLKKALLLQILVNYLGGRMLEHDLGEIYAISAKCFDMCRQQGGMRKVQYVIGIWHLMNCTVAMRGKDVALTNAKLEALVKQITSVKQ
- binding: binds

These are yes or no findings as the source states them, for the method shown. In cells and extracts the contact can be indirect. Binding can be weak; no strength is given.
